# Assay results: the supplement of paper PMC10849652
# By UniProt entry, the sequences of proteins in these tests, tags left out. Where a name states a change or a piece, a line headed by the entry shows the natural chain unless it says otherwise.
# UniProt Q15345: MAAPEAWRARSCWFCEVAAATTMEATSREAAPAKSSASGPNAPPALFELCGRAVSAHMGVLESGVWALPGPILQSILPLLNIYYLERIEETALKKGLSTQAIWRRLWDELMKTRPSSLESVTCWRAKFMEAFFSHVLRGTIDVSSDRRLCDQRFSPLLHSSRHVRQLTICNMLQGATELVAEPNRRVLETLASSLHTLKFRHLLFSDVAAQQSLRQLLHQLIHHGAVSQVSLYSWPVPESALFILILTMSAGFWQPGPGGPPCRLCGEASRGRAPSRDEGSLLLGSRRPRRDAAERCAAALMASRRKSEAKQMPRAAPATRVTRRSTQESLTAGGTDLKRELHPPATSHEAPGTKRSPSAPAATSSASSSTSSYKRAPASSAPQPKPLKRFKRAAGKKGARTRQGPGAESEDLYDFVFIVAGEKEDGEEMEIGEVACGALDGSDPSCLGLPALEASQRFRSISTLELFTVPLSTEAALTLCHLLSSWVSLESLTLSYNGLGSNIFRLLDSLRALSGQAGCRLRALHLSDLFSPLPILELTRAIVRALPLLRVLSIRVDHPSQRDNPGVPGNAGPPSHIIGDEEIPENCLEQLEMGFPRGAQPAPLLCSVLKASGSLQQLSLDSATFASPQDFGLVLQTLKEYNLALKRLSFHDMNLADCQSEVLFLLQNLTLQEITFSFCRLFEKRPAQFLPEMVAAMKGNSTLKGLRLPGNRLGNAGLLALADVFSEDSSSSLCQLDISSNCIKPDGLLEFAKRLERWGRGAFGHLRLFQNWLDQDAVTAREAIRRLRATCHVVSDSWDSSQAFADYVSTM
# UniProt P53671: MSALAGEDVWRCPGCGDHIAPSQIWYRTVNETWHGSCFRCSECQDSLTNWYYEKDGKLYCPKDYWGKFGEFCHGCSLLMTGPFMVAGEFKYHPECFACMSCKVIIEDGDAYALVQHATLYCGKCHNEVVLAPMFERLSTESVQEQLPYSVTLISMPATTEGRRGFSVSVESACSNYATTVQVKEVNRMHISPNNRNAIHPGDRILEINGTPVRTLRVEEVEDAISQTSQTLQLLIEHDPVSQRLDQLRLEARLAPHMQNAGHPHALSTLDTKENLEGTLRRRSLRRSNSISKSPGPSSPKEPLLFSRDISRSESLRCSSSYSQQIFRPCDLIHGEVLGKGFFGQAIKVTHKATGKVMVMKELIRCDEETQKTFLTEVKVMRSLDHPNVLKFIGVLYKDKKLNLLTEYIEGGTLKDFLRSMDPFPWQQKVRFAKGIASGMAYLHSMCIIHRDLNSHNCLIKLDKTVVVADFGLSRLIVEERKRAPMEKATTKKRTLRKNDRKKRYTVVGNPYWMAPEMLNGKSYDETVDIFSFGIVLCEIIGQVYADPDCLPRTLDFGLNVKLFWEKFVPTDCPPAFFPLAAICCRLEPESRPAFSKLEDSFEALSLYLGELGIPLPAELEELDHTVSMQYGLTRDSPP
# UniProt Q9Y608: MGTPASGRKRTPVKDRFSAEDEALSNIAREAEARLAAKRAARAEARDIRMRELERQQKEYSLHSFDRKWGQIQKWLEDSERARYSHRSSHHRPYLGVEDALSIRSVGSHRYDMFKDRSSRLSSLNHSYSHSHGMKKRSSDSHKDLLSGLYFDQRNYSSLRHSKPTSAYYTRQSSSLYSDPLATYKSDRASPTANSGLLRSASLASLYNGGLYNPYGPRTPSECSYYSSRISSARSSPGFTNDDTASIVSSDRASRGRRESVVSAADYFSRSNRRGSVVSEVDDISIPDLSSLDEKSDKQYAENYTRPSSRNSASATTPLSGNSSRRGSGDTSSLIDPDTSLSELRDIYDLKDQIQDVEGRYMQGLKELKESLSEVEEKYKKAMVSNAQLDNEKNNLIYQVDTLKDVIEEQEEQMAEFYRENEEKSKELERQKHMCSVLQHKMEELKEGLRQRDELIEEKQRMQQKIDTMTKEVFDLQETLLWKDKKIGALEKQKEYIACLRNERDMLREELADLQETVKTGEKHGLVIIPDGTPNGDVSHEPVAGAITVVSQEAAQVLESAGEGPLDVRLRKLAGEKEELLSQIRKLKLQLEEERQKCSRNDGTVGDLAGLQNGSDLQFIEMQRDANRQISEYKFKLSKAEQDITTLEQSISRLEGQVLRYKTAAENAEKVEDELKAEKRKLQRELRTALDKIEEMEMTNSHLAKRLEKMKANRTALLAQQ
# UniProt Q6UWE0: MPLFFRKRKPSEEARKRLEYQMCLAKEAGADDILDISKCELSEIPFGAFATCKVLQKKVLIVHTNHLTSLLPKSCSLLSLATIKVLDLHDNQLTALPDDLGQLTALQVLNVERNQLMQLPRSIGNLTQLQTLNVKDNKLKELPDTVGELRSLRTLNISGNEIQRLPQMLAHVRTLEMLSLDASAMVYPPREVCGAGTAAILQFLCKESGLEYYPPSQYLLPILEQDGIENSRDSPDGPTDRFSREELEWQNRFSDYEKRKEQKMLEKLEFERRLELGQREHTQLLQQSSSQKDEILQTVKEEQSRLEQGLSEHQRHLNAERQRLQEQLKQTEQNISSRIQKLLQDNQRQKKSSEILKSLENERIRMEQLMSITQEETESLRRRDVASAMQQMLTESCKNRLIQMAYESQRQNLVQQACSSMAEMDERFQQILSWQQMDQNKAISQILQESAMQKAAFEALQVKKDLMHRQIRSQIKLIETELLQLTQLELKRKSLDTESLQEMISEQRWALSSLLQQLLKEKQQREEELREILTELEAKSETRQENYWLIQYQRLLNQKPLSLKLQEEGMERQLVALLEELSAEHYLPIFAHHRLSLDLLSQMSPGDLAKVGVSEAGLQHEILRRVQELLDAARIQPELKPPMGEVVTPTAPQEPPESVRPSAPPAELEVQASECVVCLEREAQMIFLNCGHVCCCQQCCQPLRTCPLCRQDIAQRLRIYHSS
# UniProt Q32MZ4: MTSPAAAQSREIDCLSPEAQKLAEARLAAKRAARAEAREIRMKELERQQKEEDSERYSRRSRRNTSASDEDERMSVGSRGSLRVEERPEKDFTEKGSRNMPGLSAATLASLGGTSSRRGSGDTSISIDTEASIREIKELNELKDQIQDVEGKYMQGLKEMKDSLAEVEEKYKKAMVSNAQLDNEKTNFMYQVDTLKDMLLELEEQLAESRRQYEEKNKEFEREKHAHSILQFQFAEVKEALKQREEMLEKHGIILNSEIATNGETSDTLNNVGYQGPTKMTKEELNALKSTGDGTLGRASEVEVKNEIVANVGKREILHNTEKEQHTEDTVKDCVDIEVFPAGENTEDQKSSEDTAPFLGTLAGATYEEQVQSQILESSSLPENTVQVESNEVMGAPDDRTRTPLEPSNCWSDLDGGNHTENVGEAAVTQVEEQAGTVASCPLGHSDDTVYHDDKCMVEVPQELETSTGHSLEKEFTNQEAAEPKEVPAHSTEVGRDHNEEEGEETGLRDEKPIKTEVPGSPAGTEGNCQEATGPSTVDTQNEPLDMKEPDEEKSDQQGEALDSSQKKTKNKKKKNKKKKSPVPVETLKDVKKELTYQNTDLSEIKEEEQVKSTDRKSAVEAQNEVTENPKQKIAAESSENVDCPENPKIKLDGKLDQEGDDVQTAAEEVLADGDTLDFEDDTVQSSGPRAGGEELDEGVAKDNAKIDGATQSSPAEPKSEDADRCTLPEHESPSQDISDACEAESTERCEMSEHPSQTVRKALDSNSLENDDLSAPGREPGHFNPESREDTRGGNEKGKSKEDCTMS
# UniProt Q8IWT6: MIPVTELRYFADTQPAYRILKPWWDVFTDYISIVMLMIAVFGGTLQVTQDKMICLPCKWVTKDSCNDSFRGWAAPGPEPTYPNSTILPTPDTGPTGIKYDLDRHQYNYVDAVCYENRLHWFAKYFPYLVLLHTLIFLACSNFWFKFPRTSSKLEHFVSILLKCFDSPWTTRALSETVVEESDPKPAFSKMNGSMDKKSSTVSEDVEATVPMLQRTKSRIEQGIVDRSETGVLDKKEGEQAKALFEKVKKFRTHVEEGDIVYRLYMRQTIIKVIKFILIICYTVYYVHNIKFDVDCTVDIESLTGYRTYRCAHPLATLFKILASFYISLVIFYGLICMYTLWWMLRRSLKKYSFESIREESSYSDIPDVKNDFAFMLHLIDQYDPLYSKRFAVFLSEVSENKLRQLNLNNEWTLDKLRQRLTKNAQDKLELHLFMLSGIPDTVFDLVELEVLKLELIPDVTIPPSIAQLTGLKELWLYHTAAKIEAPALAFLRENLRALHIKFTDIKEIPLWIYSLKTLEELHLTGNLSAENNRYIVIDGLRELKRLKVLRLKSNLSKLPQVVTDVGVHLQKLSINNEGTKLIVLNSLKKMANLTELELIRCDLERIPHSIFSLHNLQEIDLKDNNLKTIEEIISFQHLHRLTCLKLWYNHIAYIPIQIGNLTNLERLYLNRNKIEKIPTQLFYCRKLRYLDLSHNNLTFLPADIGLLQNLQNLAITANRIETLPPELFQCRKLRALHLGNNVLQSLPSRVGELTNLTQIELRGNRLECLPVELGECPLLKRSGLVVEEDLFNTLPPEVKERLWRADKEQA
# UniProt Q15031: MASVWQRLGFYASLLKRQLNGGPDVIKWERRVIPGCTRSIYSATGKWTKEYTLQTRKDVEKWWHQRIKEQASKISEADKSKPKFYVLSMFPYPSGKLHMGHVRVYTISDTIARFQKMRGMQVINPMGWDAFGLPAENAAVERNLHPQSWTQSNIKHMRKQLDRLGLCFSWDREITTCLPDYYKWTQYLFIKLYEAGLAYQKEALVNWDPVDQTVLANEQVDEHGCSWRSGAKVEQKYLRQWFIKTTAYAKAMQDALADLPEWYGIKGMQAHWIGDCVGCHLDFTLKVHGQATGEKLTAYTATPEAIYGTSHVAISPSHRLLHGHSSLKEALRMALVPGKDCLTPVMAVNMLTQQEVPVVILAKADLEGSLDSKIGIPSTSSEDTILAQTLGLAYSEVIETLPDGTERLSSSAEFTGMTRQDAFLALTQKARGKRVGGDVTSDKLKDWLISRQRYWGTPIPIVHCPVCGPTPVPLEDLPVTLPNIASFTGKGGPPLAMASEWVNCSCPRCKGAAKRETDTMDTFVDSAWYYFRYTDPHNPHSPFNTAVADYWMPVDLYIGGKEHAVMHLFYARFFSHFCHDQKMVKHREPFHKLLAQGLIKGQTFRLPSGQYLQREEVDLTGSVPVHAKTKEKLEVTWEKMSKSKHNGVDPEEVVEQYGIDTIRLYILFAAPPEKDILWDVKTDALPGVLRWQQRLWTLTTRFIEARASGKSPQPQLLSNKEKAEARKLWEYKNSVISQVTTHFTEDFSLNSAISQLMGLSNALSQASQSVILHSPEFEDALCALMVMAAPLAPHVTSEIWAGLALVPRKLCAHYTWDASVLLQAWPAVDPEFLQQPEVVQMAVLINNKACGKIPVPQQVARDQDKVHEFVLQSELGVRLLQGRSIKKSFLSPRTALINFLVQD
# UniProt Q6P1A2: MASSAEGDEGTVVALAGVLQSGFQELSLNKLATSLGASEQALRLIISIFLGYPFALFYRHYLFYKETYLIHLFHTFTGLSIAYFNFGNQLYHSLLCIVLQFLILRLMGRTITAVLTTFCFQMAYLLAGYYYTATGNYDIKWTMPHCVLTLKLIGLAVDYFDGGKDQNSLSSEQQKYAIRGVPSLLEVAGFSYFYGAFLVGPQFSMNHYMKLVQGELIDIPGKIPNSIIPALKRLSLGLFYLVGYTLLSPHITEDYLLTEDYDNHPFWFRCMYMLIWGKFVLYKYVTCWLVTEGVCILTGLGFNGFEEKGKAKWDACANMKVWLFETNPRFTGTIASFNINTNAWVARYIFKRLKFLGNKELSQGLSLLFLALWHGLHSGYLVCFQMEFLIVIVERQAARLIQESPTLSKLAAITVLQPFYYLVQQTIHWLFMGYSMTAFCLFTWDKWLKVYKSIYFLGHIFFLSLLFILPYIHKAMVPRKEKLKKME
# Some of the results follow.
# Assays:
# Test in all cases: log2 fold change, soluble protein after heating vs DMSO (PISA); higher = thermal stabilisation; K562 lysate, 10 uM; active = over 0.2 and 3.5 SD of the protein, either way, in both replicates (recomputed)
# erlotinib = compound: C#Cc1cccc(Nc2ncnc3cc(OCCOC)c(OCCOC)cc23)c1 [erlotinib]
# Method in brief: (§1)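 Values give the log-two fold change in thermal stability against solvent controls, from duplicates. Crude K562 extract at 1 mg/mL protein, made by dounce homogenisation in PBS pH 7.4 with 1 mM MgCl2, was treated with 10 μM compound for 30 min. After 3 min heating across 48°C-58°C, aliquots were pooled, adjusted to 0.5% NP-40 at 4°C and centrifuged at 21,000xg for 90 min. The supernatant was measured by TMTpro 16plex LC-MS/MS with channel sums equalised.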
# [1] = compound: C/C(=N\NC(=O)C1=CC(=CC=C1)S(=O)(=O)N2CCOCC2)/C3=C(C=CC(=C3)Cl)O
# Method in brief: as §1
# [2] = compound: C1=CC(=CC=C1C2=NC3=C(N2)C=C(C=C3)C(=O)N)OC4=CC=C(C=C4)Cl
# Method in brief: as §1
# [3] = compound: C1=CC2=C(C=CC(=C2)/C=C\3/C(=O)NC(=NCC4=CC=CS4)S3)N=C1
# Method in brief: as §1
# [4] = compound: C1=CC2=NC=CN=C2C=C1/C=C/3\C(=O)NC(=O)S3
# Method in brief: as §1
# [5] = compound: C1=CC=C(C=C1)C2=NC(=C(N2)C3=CC=NC=C3)C4=CC(=C(C=C4)Cl)O
# Method in brief: as §1
# [6] = compound: C1=CC=C2C(=C1)C3=NNC4=CC=CC(=C43)C2=O
# Method in brief: as §1
# [7] = compound: C1CCN(C1)C(=O)NC2=CC=CC(=C2)NC3=NC=C(C(=N3)NCCC4=CN=CN4)Br
# Method in brief: as §1
# [8] = compound: C1CN(CCC1(CC2=CC=C(C=C2)Cl)N)C3=NC=NC4=C3C=CN4
# Method in brief: as §1
# IRAK-1-4 Inhibitor I = compound: C1COCCN1CCN2C3=CC=CC=C3N=C2NC(=O)C4=CC(=CC=C4)[N+](=O)[O-] [IRAK-1-4 Inhibitor I]
# Method in brief: as §1
# ibrutinib = compound: C=CC(=O)N1CCC[C@@H](n2nc(-c3ccc(Oc4ccccc4)cc3)c3c(N)ncnc32)C1 [ibrutinib]
# Method in brief: as §1
# [9] = compound: CC(=O)c1cnc2ccc(-c3cc(Cl)c(O)c(Cl)c3)nc2c1N[C@H]1CC[C@H](CN(C)C)CC1
# Method in brief: as §1
# ralimetinib = compound: CC(C)(C)Cn1c(N)nc2ccc(-c3[nH]c(C(C)(C)C)nc3-c3ccc(F)cc3)nc21 [ralimetinib]
# Method in brief: as §1
# [10] = compound: CC(C)(O)CC(=O)NCCn1ccc2ncnc(Nc3ccc(Oc4cccc(C(F)(F)F)c4)c(Cl)c3)c21
# Method in brief: as §1
# [11] = compound: CC(C)C1=C2N=C(C=C(N2N=C1)NCC3=CC=CC=C3)NCCCCCCN
# Method in brief: as §1
# [12] = compound: CC1=C(C(CC(=O)N1)C2=CC=C(C=C2)C(F)(F)F)C(=O)NC3=C(C=C4C(=C3)C=NN4)F
# Method in brief: as §1
# [13] = compound: CC1=C(C2=C(C=C1)C(=O)C3=CC=CC=C3N2CCCN)C
# Method in brief: as §1
# [14] = compound: CC1=C(C=C(C=C1)NC(=O)C2=CC(=CC=C2)C(C)(C)C#N)NC3=CC4=C(C=C3)N=CN(C4=O)C
# Method in brief: as §1
# [15] = compound: CC1=C(C=C(C=C1)NC(=O)C2=CC(=CC=C2)N(C)C)NC(=O)C3=CC=C(C=C3)O
# Method in brief: as §1
# [16] = compound: CC1=CC=C(C=C1)SC2=C3C=C(SC3=CN=C2)C(=O)N
# Method in brief: as §1
Target,log2 fold change (erlotinib),log2 fold change [1],log2 fold change [2],log2 fold change [3],log2 fold change [4],log2 fold change [5],log2 fold change [6],log2 fold change [7],log2 fold change [8],log2 fold change (IRAK-1-4 Inhibitor I),log2 fold change (ibrutinib),log2 fold change [9],log2 fold change (ralimetinib),log2 fold change [10],log2 fold change [11],log2 fold change [12],log2 fold change [13],log2 fold change [14],log2 fold change [15],log2 fold change [16]
LRRC41 (UniProt Q15345),inactive: 0.017,inactive: 0.034,inactive: -0.055,inactive: -0.076,inactive: 0,inactive: -0.066,inactive: 0.059,inactive: 0.05,inactive: 0.065,inactive: 0.047,inactive: 0.079,inactive: -0.042,inactive: -0.016,inactive: -0.08,inactive: 0.028,inactive: 0.075,inactive: -0.027,inactive: -0.041,inactive: -0.012,inactive: -0.2
LIMK2 isoform 3 (UniProt P53671),inactive: -0.013,inactive: -0.038,inactive: -0.048,inactive: 0.062,inactive: 0.053,inactive: 0.016,inactive: 0.003,inactive: -0.002,inactive: 0.001,inactive: -0.031,inactive: 0.129,inactive: 0.003,inactive: 0,inactive: 0.018,inactive: 0.008,inactive: -0.03,inactive: -0.005,inactive: 0.175,inactive: 0.013,inactive: -0.073
LRRFIP2 (UniProt Q9Y608),inactive: -0.033,inactive: 0.004,inactive: 0.043,inactive: -0.001,inactive: -0.008,inactive: 0.013,inactive: 0.008,inactive: 0.025,inactive: -0.018,inactive: -0.039,inactive: 0,inactive: 0.009,inactive: 0.012,inactive: -0.052,inactive: -0.051,inactive: 0.018,inactive: -0.017,inactive: 0.017,inactive: 0.023,inactive: -0.017
LRSAM1 (UniProt Q6UWE0),inactive: -0.006,inactive: 0.014,inactive: 0.029,inactive: -0.002,inactive: -0.028,inactive: -0.005,inactive: 0.016,inactive: -0.019,inactive: 0.03,inactive: 0.017,inactive: 0.048,inactive: -0.031,inactive: 0.02,inactive: -0.028,inactive: -0.01,inactive: 0.012,inactive: -0.01,inactive: 0.026,inactive: -0.01,inactive: -0.019
LRRFIP1 (UniProt Q32MZ4),inactive: 0.002,inactive: -0.017,inactive: 0.03,inactive: 0.016,inactive: 0.004,inactive: 0.011,inactive: -0.015,inactive: -0.034,inactive: -0.004,inactive: 0.003,inactive: -0.017,inactive: -0.011,inactive: -0.008,inactive: -0.038,inactive: 0.015,inactive: -0.023,inactive: -0.028,inactive: 0.014,inactive: 0.01,inactive: -0.016
LRRC8A (UniProt Q8IWT6),inactive: 0.018,inactive: 0.026,inactive: 0.005,inactive: -0.007,inactive: -0.046,inactive: 0.003,inactive: 0.035,inactive: -0.056,inactive: 0.033,inactive: 0.014,inactive: 0.031,inactive: 0.031,inactive: -0.001,inactive: -0.034,inactive: -0.05,inactive: 0.043,inactive: -0.011,inactive: -0.014,inactive: 0.005,inactive: 0.003
LARS2 (UniProt Q15031),inactive: 0.027,inactive: 0.033,active: 0.549,inactive: -0.012,inactive: -0.041,inactive: 0.014,inactive: 0.029,inactive: 0.03,inactive: 0.039,inactive: -0.021,inactive: 0.009,inactive: 0.034,inactive: 0.026,inactive: 0.156,inactive: -0.027,inactive: 0.02,inactive: 0.063,inactive: -0.036,inactive: 0.046,inactive: 0.028
LPCAT3 (UniProt Q6P1A2),inactive: -0.025,inactive: 0.169,inactive: -0.288,inactive: 0.078,inactive: 0.016,inactive: -0.001,inactive: -0.017,inactive: -0.109,inactive: 0.002,inactive: 0.006,inactive: -0.009,inactive: -0.005,inactive: 0.062,inactive: -0.153,inactive: -0.073,inactive: -0.007,inactive: 0.015,inactive: 0.371,inactive: -0.035,inactive: -0.022

# An excerpt from above, showing only log2 fold change [2], log2 fold change [10] and log2 fold change [13]:
Target | log2 fold change [2] | log2 fold change [10] | log2 fold change [13]
LIMK2 isoform 3 (UniProt P53671) | inactive: -0.048 | inactive: 0.018 | inactive: -0.005
LRRFIP2 (UniProt Q9Y608) | inactive: 0.043 | inactive: -0.052 | inactive: -0.017
